Source: paper PMC12112554, “Estrogen-Related Receptor Potential Target Genes in Silkworm (Bombyx mori): Insights into Metabolic Regulation”
The exact form of at least one protein or probe is not confirmed. Results from cells or extracts need not show a direct contact. At least one verdict rests on a figure or table, not on a statement of the authors.

Chains of the proteins cited; added tags and fusions are not shown. A change or cut given only in a name is not applied to a line headed by its entry. Chains listed by the source or under a name are the forms on record and can include a tag or linker.
BmERR (nuclear protein, native) (Bombyx mori (D9L per Fig 7D)), one chain, as listed by the source: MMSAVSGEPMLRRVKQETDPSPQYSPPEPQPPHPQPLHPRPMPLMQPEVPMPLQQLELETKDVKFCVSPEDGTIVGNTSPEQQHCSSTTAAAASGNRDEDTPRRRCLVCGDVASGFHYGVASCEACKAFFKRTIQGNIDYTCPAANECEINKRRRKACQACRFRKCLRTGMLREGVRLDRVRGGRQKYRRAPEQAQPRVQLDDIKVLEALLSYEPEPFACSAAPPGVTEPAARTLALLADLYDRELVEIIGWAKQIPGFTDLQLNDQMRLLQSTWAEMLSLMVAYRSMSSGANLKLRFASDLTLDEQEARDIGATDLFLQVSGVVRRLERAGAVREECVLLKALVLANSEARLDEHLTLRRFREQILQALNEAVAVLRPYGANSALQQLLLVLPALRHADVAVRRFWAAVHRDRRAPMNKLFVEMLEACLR

Tested on: BmERR (nuclear protein, native) (Bombyx mori (D9L per Fig 7D))
Assay: EMSA
Conditions: weakened by BmERR antibody and competitor, Beyotime kit buffer (composition not given), 25 °C 25 min, 5% native PAGE in 1x TBE (45 mM Tris-borate, 1 mM EDTA, pH 8.3), protein in an extract, label: biotin 3'

Sequence	binding result
TTTTTGTAACCTTAAACTCCT (double strand) [Tret1 CRE2]	binds
AGCTTCTCCTTGACGTGTAG (double strand) [Tret1 CRE1]	binds
GCGGACTCACAAGGTCCTACCA (double strand) [Tret1 CRE3]	binds
